The values below come from the supplement of paper PMC8256030.

SMILES strings stand for the structures. Several values for one entry are separate records, joined by “and”; a condition that tells them apart may be missing. Equal values may be shown once. The list shows a part of the results. Single values are uncertain here, since repeats match poorly.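 HEK293T cells were given each compound shortly before transfection with a reporter in which red mCherry is followed by the SARS-CoV-2 frameshift element and then GFP in the −1 frame, so GFP appears only after frameshifting.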

The assay deals with HEK293T. As to the kind of experiment: percent viability (nuclei count) relative to control; higher = more viable cells. To be noted: 10 µM; 24 h.
For the molecule `O=C1C(CC[S+]([O-])c2ccccc2)C(=O)N(c2ccccc2)N1c1ccccc1` (stereo not given) [sulfinpyrazone], the percent viability was determined as 158%. For the molecule `CNC(=O)CN(CCN(CCN(CC(=O)[O-])CC(=O)NC)CC(=O)[O-])CC(=O)[O-].[Gd+3]` [Omniscan], the percent viability was determined as 267%.

As to `Nc1nc(N)c2nc(CNc3ccc(C(=O)N[C@@H](CCC(=O)O)C(=O)O)cc3)cnc2n1`, the percent viability was found to be 233%.

For the molecule `NC(=O)NCCN1CCN(c2cccc(C(F)(F)F)c2)CC1` [fluprazine], the percent viability was found to be 239%. In the case of `CCOC(=O)c1ccc(O)cc1`, the percent viability turned out to be 175%. Regarding `C[C@@H]1O[C@@H](OC[C@H]2O[C@@H](Oc3c(-c4ccc(O)c(O)c4)oc4cc(O)cc(O)c4c3=O)[C@H](O)[C@@H](O)[C@@H]2O)[C@H](O)[C@H](O)[C@H]1O` [rutoside], the percent viability amounted to 125%.

For `COc1cc2c(cc1OC)C(=O)C(CC1CCN(Cc3ccccc3)CC1)C2` (stereo not given) [donepezil], the percent viability came to 197%. For `CO[C@@H]1[C@@H](O[C@@H]2O[C@H](C)[C@@H](O[C@H]3C[C@@](C)(O)[C@@H](OC(=O)CC(C)C)[C@H](C)O3)[C@H](N(C)C)[C@H]2O)[C@@H](CC=O)C[C@@H](C)[C@@H](O)/C=C/C=C/C[C@@H](C)OC(=O)C[C@H]1OC(C)=O` [josamycin], the percent viability was determined as 168%. Then `CN[C@H]1CC[C@@H](c2ccc(Cl)c(Cl)c2)c2ccccc21` [sertraline], with 307%. As for `CC[C@H]1OC(=O)C[C@@H](O)[C@H](C)[C@@H](O[C@@H]2O[C@H](C)[C@@H](O[C@H]3C[C@@](C)(O)[C@@H](O)[C@H](C)O3)[C@H](N(C)C)[C@H]2O)[C@@H](CC=O)C[C@@H](C)C(=O)/C=C/C(C)=C/[C@@H]1CO[C@@H]1O[C@H](C)[C@@H](O)[C@@H](OC)[C@H]1OC` [Tylosin], the percent viability turned out to be 164%. To `CN(C)CCCC1(c2ccc(F)cc2)OCc2cc(C#N)ccc21` (stereo not given) [citalopram] belongs 286% and 188%; to `C[C@H]1COc2c(N3CCN(C)CC3)c(F)cc3c(=O)c(C(=O)O)cn1c23` [levofloxacin], 320% and 189% and 288%; to `CC(C)(C)NCC(O)COc1cccc2c1CCC(=O)N2` (stereo not given), 360%. With `CSCC[C@H](N)C(=O)O` [methionine], the percent viability was 230%. Then `CCN(CC)C(=O)C1(c2ccccc2)CC1CN` (stereo not given), with 154%; and `NS(=O)(=O)c1ccc(Cl)c(S(N)(=O)=O)c1` [clofenamide], with 259%; and `O=C(O)Cc1nn(Cc2ccc(Br)cc2F)c(=O)c2ccccc12` [ponalrestat], with 171%. Then `C=C(NC(=O)C(=C)NC(=O)c1csc(C2=NC3c4csc(n4)C4NC(=O)c5csc(n5)C(C(C)(O)C(C)O)NC(=O)C5CSC(=N5)/C(=C\C)NC(=O)C(C(C)O)NC(=O)c5csc(n5)C3(CC2)NC(=O)C(C)NC(=O)C(=C)NC(=O)C(C)NC(=O)C(C(C)CC)NC2C=Cc3c(C(C)O)cc(nc3C2O)C(=O)OC4C)n1)C(N)=O` (stereo not given), with 155%; and `CN[C@@H]1[C@H](O[C@H]2[C@H](O[C@H]3[C@H](O)[C@@H](O)[C@H](N=C(N)N)[C@@H](O)[C@@H]3N=C(N)N)O[C@@H](C)[C@]2(O)C=O)O[C@@H](CO)[C@H](O)[C@H]1O` [streptomycin], with 179%; and `Cc1ccccc1N1C(=O)c2cc(S(N)(=O)=O)c(Cl)cc2NC1C` (stereo not given) [metolazone], with 93.7%. Regarding `N[C@@H](CCC(=O)N[C@@H](CS)C(=O)NCC(=O)O)C(=O)O`, the percent viability stood at 59%. Consider `CC(C)NCC(O)COc1ccc(CC(N)=O)cc1` (stereo not given) [atenolol], for which the percent viability is 277% and 95.5%. Consider `CC(C)(Oc1ccc(C(O)c2ccc(Cl)cc2)cc1)C(=O)O` (stereo not given) [fenirofibrate], for which the percent viability is 390%. As for `Cn1cnc2c1c(=O)[nH]c(=O)n2C`, the percent viability came to 368%. Consider `NCCC[C@H](N)CC(=O)N[C@H]1CNC(=O)[C@H]([C@H]2C[C@H](O)NC(N)=N2)NC(=O)/C(=C/NC(N)=O)NC(=O)[C@H](CO)NC(=O)[C@H](CO)NC1=O` [viomycin], for which the percent viability was 97.6%.
